Assay results as given in US20260109755A1.
These are yes or no findings as the source states them, for the method shown. Some results given as binding are weak or reduced against the parent protein; the word gives no strength.

Chains of the proteins cited; added tags and fusions are not shown. Lines headed by an entry give the natural chain unless they say otherwise; changes in a name come on top.
UniProt O60602: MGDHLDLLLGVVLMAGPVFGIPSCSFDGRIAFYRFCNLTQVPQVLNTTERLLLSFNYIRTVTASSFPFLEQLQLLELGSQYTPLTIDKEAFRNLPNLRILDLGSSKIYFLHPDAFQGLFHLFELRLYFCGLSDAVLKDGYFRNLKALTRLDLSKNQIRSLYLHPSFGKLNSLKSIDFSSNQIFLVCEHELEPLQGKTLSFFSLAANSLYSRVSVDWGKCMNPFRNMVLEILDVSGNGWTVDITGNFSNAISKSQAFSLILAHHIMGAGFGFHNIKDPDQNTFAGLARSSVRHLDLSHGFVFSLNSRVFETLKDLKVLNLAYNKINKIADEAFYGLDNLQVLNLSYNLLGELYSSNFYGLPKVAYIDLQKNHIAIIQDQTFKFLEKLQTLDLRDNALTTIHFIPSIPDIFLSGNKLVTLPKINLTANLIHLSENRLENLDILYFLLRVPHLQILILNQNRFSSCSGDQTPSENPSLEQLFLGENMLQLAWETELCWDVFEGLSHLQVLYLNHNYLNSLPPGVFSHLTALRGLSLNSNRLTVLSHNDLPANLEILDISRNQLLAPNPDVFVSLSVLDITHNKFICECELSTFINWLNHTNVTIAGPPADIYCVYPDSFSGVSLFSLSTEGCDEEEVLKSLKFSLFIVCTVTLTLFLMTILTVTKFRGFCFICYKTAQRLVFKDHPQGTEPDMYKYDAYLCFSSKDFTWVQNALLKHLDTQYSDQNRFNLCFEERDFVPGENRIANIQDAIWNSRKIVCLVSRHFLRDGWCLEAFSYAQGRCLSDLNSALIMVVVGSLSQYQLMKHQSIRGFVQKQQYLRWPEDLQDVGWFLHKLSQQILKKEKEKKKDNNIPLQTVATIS

Legend:
[1] = target: T1, SH3YL1 of mouse mesangial cell line MES13 (cell supernatant and cell lysate) (mouse) (UniProt O08641); assay: immunoprecipitation with hTLR5-FC (FIG. 3)
T1 sequence (looked up): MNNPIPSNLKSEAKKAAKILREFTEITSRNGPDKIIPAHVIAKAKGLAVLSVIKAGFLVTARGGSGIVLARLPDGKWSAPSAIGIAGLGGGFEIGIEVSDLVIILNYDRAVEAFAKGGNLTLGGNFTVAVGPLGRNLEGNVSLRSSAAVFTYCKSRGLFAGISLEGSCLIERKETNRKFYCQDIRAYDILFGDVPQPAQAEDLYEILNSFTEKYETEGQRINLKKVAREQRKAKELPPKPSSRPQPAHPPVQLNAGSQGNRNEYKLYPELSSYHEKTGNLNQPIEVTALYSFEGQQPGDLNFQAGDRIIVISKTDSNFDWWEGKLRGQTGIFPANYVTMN

[2] = target: T1, SH3YL1 of mouse mesangial cell line MES13 (cell supernatant and cell lysate) (mouse); assay: immunoprecipitation of MES13 supernatants and lysates with TLR5-ecto-Fc, immunoblot for SH3YL1

binding [1]: binds
binding [2]: binds
Substance: Soluble ectodomain of human TLR5 fused to an IgG1 Fc domain (hTLR5-FC; Invivogen) (from UniProt O60602 21-639) (Fc fusion)
